Measured values: the supplement of paper PMC7858590
± gives the standard deviation of the averaged measurements. The list shows a part of the results. Repeats in this data set agree poorly, so a single value says little.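 Macrophages came from blood monocytes pooled from four healthy donors and grown with M-CSF; these M1-like cells were treated with compounds that had pushed resting macrophages toward the M2-like state in a first-round screen. The Z-score is a t-test comparing cell eccentricity (about 1000 cells per well) with same-row DMSO wells; a compound counts as reprogramming when it passes the M2 cutoff of +6 set by standard cytokine controls (the M1 cutoff is −4).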

Test system: human monocyte-derived macrophages (polarized)
Experiment: cell shape (eccentricity) Z-score vs DMSO control; macrophage state: M1-polarized (IFNg + TNFa), cytokines removed before treatment; higher = more elongated, M2-like morphology
Conditions: 24 h

SMILES	cell shape (Z-score) (5 µM)	cell shape (Z-score) (10 µM)
C/C=C/c1ccc2c(c1)O[C@@H](CN(C)C(=O)c1ccccc1)[C@@H](C)CN([C@@H](C)CO)S2(=O)=O	4.48 ± 5.8	4.25 ± 4.4
O=C(CCCCCCC(=O)Nc1ccccc1)NO	0.215 ± 0.12	-2.57 ± 4.3
CCN(CC)CCOc1ccc2c(c1)C(=O)c1cc(OCCN(CC)CC)ccc1-2	-1.87 ± 2.9	-4.24 ± 3.8
C[C@]1(CO)CN(c2cc(C(=O)Nc3ccc4c(c3)-c3c(c(C(N)=O)nn3-c3ccc(F)cc3)CC4)c(Cl)cn2)C[C@@]1(C)CO	-5.96 ± 2.9	-8.14 ± 0.75
